Laboratory results: PubChem BioAssay AID1487 (National Center for Advancing Translational Sciences (NCATS), 2009)
Some of the results follow. The main result of the screen is listed elsewhere. These columns were measured beside it and carry no call. The list favours compounds with an active or inconclusive main result. The note in brackets gives the kind of curve behind each potency; many fits are weak.

Test: qHTS Assay for Modulators of Lamin A Splicing
Details: HeLa LMNA splicing GFP/RFP minigene ratio, 48 h
How it was run: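 Read-out is the ratio of GFP to DsRed2 object intensity, acquired by 488 nm laser-scanning cytometry on HeLa lamin A-EGFP minigene reporter cells. Compound incubation 48 hrs at 37 °C in Opti-MEM with 2% FBS; DMSO 0.5% final.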

[1] = measured here: GFP splicing reporter channel
[2] = measured here: RFP viability control channel

Row | SMILES | AC50 [1] | AC50 [2]
1 | CNC(=S)N/N=C/c1cccc(OCc2ccccc2F)c1 | 35.5 µM [rising, single point] | 35.5 µM [rising, single point]
2 | Cc1ccc(O)c(NC(=O)CSc2n[nH]c(C)c2[N+](=O)[O-])c1 | 14.1 µM [falling, single point] | –
3 | COc1ccc(C(=O)Nc2sc(C)c(-c3ccccc3)c2C#N)cc1OC | – | 25.1 µM [rising, single point]
4 | Cc1ccc(NC(=O)CSc2ncnc3ccccc23)cc1S(=O)(=O)N1CCCCC1 | 5.62 µM [rising, single point] | 8.91 µM [rising, partial curve, poor fit]
5 | CCCCCC(=O)Nc1ccc2ccccc2c1 | – | 14.1 µM [rising, single point]
6 | CCOC(=O)c1ccc(CN(Cc2ccc(F)cc2)S(=O)(=O)c2ccc(F)cc2)cc1 | 0.00891 µM [falling, full curve] | –
7 | O=C(Nc1ccc(C(F)(F)F)cc1)c1cc(S(=O)(=O)NC2CCCCCC2)ccc1F | 22.4 µM [falling, partial curve] | 25.1 µM [falling, partial curve]
8 | O=C(COc1ccc(S(=O)(=O)N2CCCC2)cc1)Nc1ccc2c(c1)OCCO2 | 0.0794 µM [rising, full curve, poor fit] | 0.891 µM [rising, partial curve, poor fit]
9 | Cc1cc(/C=C(\C#N)C(=O)NCC2CCCO2)c(C)n1-c1ccc(Cl)cc1 (configuration not stated) | – | 12.6 µM [rising, partial curve]
10 | S=C(NCCN1CCOCC1)Nc1ccccc1Cl | – | 0.251 µM [rising, full curve, poor fit]
11 | O=C(OC1CCCCC1)c1ccc(NC(=O)C2CCCCC2)cc1 | 15.8 µM [rising, single point] | 31.6 µM [rising, single point]
12 | Cc1ccc(CCSc2ccc(C(C)C)cc2)cn1 | – | 35.5 µM [rising, single point]
13 | Cc1ccc(C(=O)Nc2ccc3nc(SCC(=O)N4CCc5ccccc54)sc3c2)cc1 | 0.158 µM [falling, full curve, poor fit] | –
14 | CN(Cc1ccco1)c1ncncc1-c1ccoc1 | – | 11.2 µM [falling, partial curve]
15 | Cc1ccc(C(=O)Nc2nc(C(C)(C)C)cs2)s1 | – | 31.6 µM [rising, single point]
16 | Cc1ccc(C(=O)N/N=C\C=C\c2ccccc2[N+](=O)[O-])cn1 | 0.0501 µM [falling, full curve, poor fit] | 0.794 µM [falling, full curve, poor fit]

3 entries already listed, arranged by molecular weight, low to high.
Row | SMILES | AC50 [1] | AC50 [2]
14 | CN(Cc1ccco1)c1ncncc1-c1ccoc1 | – | 11.2 µM [falling, partial curve]
2 | Cc1ccc(O)c(NC(=O)CSc2n[nH]c(C)c2[N+](=O)[O-])c1 | 14.1 µM [falling, single point] | –
4 | Cc1ccc(NC(=O)CSc2ncnc3ccccc23)cc1S(=O)(=O)N1CCCCC1 | 5.62 µM [rising, single point] | 8.91 µM [rising, partial curve, poor fit]
